doi:10.1101/2022.09.06.506770
Results are given in words; binding and its absence hold for the method and conditions named. In cells and extracts the contact can be indirect. Some results given as binding are weak or reduced against the parent protein; the word gives no strength. Sequences can lack the tags named with a protein.

T1: C-terminal His-tagged PBP3 (pBAD-based plasmid) (Escherichia coli) (UniProt P0AD68)
T1 sequence: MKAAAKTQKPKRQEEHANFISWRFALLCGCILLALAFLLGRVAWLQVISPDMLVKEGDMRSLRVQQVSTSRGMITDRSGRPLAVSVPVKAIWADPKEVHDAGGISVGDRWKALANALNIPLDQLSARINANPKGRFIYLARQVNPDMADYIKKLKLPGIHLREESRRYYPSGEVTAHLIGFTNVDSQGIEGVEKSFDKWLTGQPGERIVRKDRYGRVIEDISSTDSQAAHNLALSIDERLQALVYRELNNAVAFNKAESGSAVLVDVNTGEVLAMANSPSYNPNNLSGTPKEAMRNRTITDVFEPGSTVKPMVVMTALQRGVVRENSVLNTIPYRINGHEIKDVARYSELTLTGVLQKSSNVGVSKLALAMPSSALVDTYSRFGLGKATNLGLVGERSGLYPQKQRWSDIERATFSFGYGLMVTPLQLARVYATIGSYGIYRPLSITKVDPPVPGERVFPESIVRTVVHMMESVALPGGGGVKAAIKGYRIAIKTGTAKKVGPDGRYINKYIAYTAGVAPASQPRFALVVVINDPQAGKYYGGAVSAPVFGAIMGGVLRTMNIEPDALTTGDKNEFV

T2: C-terminal His-tagged PBP1b (pBAD-based plasmid) (Escherichia coli) (UniProt P02919)
T2 sequence: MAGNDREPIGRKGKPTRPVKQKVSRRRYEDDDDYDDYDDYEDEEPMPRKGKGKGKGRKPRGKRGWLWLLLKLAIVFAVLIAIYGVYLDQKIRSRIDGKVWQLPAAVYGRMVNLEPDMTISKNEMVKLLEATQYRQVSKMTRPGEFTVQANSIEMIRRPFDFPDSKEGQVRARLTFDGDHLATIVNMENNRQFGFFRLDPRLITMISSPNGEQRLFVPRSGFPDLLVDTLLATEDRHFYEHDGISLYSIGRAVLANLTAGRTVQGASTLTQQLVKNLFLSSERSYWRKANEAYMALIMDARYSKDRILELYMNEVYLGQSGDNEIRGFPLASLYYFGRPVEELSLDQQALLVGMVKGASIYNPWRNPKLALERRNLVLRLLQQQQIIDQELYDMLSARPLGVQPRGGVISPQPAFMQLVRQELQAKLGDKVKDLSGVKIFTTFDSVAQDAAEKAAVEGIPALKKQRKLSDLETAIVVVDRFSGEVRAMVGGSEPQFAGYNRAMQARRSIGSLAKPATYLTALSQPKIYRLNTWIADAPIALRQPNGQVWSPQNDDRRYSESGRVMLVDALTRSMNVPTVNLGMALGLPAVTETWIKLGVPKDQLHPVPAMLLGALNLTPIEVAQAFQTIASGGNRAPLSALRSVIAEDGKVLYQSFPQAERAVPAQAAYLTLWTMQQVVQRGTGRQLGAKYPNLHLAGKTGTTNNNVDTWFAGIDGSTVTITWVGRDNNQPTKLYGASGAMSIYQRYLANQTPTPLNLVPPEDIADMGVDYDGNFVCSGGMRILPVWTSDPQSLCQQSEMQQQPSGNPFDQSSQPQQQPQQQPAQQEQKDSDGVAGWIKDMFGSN

T3: C-terminal His-tagged PBP1a (pBAD-based plasmid) (Escherichia coli) (UniProt P02918)
T3 sequence: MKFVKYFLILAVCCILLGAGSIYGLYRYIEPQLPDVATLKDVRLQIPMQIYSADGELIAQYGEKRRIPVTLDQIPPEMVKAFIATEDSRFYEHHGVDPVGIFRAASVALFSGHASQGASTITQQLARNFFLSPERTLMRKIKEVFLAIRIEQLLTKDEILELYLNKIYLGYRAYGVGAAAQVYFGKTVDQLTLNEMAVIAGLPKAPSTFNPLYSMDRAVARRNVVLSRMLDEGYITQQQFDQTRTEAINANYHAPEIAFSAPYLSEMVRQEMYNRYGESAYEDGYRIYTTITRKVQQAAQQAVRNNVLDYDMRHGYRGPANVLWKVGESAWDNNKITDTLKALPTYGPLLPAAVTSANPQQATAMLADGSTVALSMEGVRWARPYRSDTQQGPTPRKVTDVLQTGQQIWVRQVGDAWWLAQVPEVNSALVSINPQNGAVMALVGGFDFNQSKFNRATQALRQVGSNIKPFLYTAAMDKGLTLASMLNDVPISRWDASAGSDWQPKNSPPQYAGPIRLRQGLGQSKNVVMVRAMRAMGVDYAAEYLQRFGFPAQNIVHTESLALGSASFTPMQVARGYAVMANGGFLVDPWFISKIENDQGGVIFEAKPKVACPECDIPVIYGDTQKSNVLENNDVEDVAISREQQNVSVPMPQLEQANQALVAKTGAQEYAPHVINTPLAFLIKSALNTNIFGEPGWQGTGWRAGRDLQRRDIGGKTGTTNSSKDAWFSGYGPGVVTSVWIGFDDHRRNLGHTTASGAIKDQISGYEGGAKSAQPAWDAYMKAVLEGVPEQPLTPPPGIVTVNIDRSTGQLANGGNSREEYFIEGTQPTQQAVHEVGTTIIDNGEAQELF

T4: C-terminal His-tagged PBP2 (pBAD-based plasmid) (Escherichia coli) (UniProt P0AD65)
T4 sequence: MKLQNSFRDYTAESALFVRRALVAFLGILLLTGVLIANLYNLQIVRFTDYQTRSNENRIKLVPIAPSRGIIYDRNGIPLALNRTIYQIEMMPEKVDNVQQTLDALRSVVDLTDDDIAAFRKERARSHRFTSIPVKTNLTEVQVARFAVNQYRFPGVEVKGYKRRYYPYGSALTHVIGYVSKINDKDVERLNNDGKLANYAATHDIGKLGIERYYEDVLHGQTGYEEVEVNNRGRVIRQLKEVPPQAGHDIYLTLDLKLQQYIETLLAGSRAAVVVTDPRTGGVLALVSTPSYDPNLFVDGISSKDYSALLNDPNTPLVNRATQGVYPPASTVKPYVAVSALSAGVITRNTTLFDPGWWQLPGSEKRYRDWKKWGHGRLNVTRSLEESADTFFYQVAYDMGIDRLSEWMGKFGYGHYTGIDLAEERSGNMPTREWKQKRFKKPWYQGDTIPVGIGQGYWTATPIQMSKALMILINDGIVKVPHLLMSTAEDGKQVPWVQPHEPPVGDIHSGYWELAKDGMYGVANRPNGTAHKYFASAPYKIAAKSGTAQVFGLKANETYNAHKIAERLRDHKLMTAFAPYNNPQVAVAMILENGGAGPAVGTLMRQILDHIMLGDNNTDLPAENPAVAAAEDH

B1: DacA-Flag (chromosomal DacA with C-terminal 3xFlag, strain MG1655 DacA-Flag) (enzyme, UniProt P0AEB2 30-403)
chain: DDLNIKTMIPGVPQIDAESYILIDYNSGKVLAEQNADVRRDPASLTKMMTSYVIGQAMKAGKFKETDLVTIGNDAWATGNPVFKGSSLMFLKPGMQVPVSQLIRGINLQSGNDACVAMADFAAGSQDAFVGLMNSYVNALGLKNTHFQTVHGLDADGQYSSARDMALIGQALIRDVPNEYSIYKEKEFTFNGIRQLNRNGLLWDNSLNVDGIKTGHTDKAGYNLVASATEGQMRLISAVMGGRTFKGREAESKKLLTWGFRFFETVNPLKVGKEFASEPVWFGDSDRASLGVDKDVYLTIPRGRMKDLKASYVLNSSELHAPLQKNQVVGTINFQLDGKTIEQRPLVVLQEIPEGNFFGKIIDYIKLMFHHWFG
B2: DacC(ΔC)-Flag (chromosomal DacC without the C-terminal membrane-anchoring domain, strain MG1655 DacC(ΔC)-Flag) (domain or fragment, UniProt P08506 28-378)
chain: AEQTVEAPSVDARAWILMDYASGKVLAEGNADEKLDPASLTKIMTSYVVGQALKADKIKLTDMVTVGKDAWATGNPALRGSSVMFLKPGDQVSVADLNKGVIIQSGNDACIALADYVAGSQESFIGLMNGYAKKLGLTNTTFQTVHGLDAPGQFSTARDMALLGKALIHDVPEEYAIHKEKEFTFNKIRQPNRNRLLWSSNLNVDGMKTGTTAGAGYNLVASATQGDMRLISVVLGAKTDRIRFNESEKLLTWGFRFFETVTPIKPDATFVTQRVWFGDKSEVNLGAGEAGSVTIPRGQLKNLKASYTLTEPQLTAPLKKGQVVGTIDFQLNGKSIEQRPLIVMENVEEGG
B3: DacC-Flag (chromosomal DacC with C-terminal 3xFlag, strain MG1655 DacC-Flag) (enzyme, UniProt P08506 28-400)
chain: AEQTVEAPSVDARAWILMDYASGKVLAEGNADEKLDPASLTKIMTSYVVGQALKADKIKLTDMVTVGKDAWATGNPALRGSSVMFLKPGDQVSVADLNKGVIIQSGNDACIALADYVAGSQESFIGLMNGYAKKLGLTNTTFQTVHGLDAPGQFSTARDMALLGKALIHDVPEEYAIHKEKEFTFNKIRQPNRNRLLWSSNLNVDGMKTGTTAGAGYNLVASATQGDMRLISVVLGAKTDRIRFNESEKLLTWGFRFFETVTPIKPDATFVTQRVWFGDKSEVNLGAGEAGSVTIPRGQLKNLKASYTLTEPQLTAPLKKGQVVGTIDFQLNGKSIEQRPLIVMENVEEGGFFGRVWDFVMMKFHQWFGSWFS

target: T1, C-terminal His-tagged PBP3 (pBAD-based plasmid) (Escherichia coli); assay: pull-down

Row | binding | Binder
1 | binds | B1
2 | no binding | B2
3 | binds | B3

target: T2, C-terminal His-tagged PBP1b (pBAD-based plasmid) (Escherichia coli); assay: pull-down

Row | binding | Binder
4 | binds | B1
5 | no binding | B2
6 | binds | B3

target: T3, C-terminal His-tagged PBP1a (pBAD-based plasmid) (Escherichia coli); assay: pull-down

Row | binding | Binder
7 | binds | B1
8 | no binding | B2
9 | binds | B3

target: T4, C-terminal His-tagged PBP2 (pBAD-based plasmid) (Escherichia coli); assay: pull-down

Row | binding | Binder
10 | binds | B1
11 | binds | B2
12 | binds | B3
